Data on 15 compounds can be found in the supplement of paper PMC4604168 (melanoma cell lines).

The list shows a part of the results. Single values are uncertain, as repeats are few or missing.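 The apoptosis fraction was the count of cleaved-PARP antibody-stained nuclei relative to all DNA-stained nuclei, imaged in 1,536-well plates. Screening doses were set so most cells survived, and baseline and induced cleaved-PARP levels vary greatly across cell lines.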

The subject of the test is C32. The test is described as follows: cleaved PARP positive nuclei fraction relative to DMSO control; melanoma cells; higher = more apoptosis. The conditions noted are these: library dose: low library concentration; 72 h.
In the case of `CN(c1ncccc1CNc1nc(Nc2ccc3c(c2)CC(=O)N3)ncc1C(F)(F)F)S(C)(=O)=O` + Oc1nc(-c2ccc(C(F)(F)F)cc2)nc2c1CSCC2 [XAV939] (first compound 0.08 µM, partner dose 2 µM), the “cleaved PARP positive nuclei fraction” value was found to be 105%.

`CS(=O)(=O)c1ccc(C(=O)Nc2ccc(Cl)c(-c3ccccn3)c2)c(Cl)c1` [vismodegib] + COC(=O)c1sccc1S(=O)(=O)Nc1ccc(Nc2ccccc2)cc1OC [GSK0660] (first compound 1 µM, partner dose 1 µM): the “cleaved PARP positive nuclei fraction” value was 78.3%.

Consider `Cn1sc(=O)n(Cc2ccccc2)c1=O` + O=C(O)C(=O)Nc1sc2c(c1C(=O)O)CCNC2 [TCS401] (first compound 0.4 µM, partner dose 1.66667 µM), for which the “cleaved PARP positive nuclei fraction” value was 71.2%.

As for `Cn1cnc2c(F)c(Nc3ccc(Br)cc3Cl)c(C(=O)NOCCO)cc21` [selumetinib] + N#Cc1c(O)c2c(-c3ccc(-c4ccccc4O)cc3)csc2[nH]c1=O [A769662] (first compound 0.015 µM, partner dose 2 µM), the “cleaved PARP positive nuclei fraction” value was found to be 94.3%.

As for `CCN(CC)CCNC(=O)c1c(C)[nH]c(/C=C2\C(=O)Nc3ccc(F)cc32)c1C` [sunitinib] + N#Cc1c(O)c2c(-c3ccc(-c4ccccc4O)cc3)csc2[nH]c1=O [A769662] (first compound 0.4 µM, partner dose 2 µM), the “cleaved PARP positive nuclei fraction” value was 141%.

Consider `CS(=O)(=O)c1ccc(C(=O)Nc2ccc(Cl)c(-c3ccccn3)c2)c(Cl)c1` [vismodegib] + Cn1cc(/C=C2\C(=O)Nc3cccnc32)c2ccccc21 [GW441756] (first compound 1 µM, partner dose 0.4 µM), for which the “cleaved PARP positive nuclei fraction” value is 138%.

For `COc1ccc(C2=N[C@@H](c3ccc(Cl)cc3)[C@@H](c3ccc(Cl)cc3)N2C(=O)N2CCNC(=O)C2)c(OC(C)C)c1` [Nutlin-3] + Cn1cc(/C=C2\C(=O)Nc3cccnc32)c2ccccc21 [GW441756] (first compound 0.1 µM, partner dose 0.4 µM), the “cleaved PARP positive nuclei fraction” value was determined as 254%.

In the case of `COc1ccc(C2=N[C@@H](c3ccc(Cl)cc3)[C@@H](c3ccc(Cl)cc3)N2C(=O)N2CCNC(=O)C2)c(OC(C)C)c1` [Nutlin-3] + COc1ccc(COc2ccc(Cc3cnc(N)nc3N)cc2OC)cc1 [GW2580] (first compound 0.1 µM, partner dose 1 µM), the “cleaved PARP positive nuclei fraction” value was 70.3%.

As for `C[C@@H](N)c1ccc(C(=O)Nc2ccnc3[nH]ccc23)cc1` + O=C1NC(=O)/C(=C/c2ccc(-c3ccc(F)cc3O)o2)S1 [AS252424] (first compound 0.4 µM, partner dose 1 µM), the “cleaved PARP positive nuclei fraction” value was determined as 1070%.

Consider `C[C@]1(O)C[C@@H](c2nc(-c3ccc4ccc(-c5ccccc5)nc4c3)c3c(N)nccn32)C1` + Oc1cc(-c2nc(-c3ccccc3)[nH]c2-c2ccncc2)ccc1Cl [L779450] (first compound 0.4 µM, partner dose 0.2 µM), for which the “cleaved PARP positive nuclei fraction” value came to 79.6%.

Turning to `CCCCCCCCc1ccc(CCC(N)(CO)CO)cc1` [fingolimod] + COC(=O)c1sccc1S(=O)(=O)Nc1ccc(Nc2ccccc2)cc1OC [GSK0660] (first compound 2 µM, partner dose 1 µM), the “cleaved PARP positive nuclei fraction” value was 30.7%.

Regarding `CCN(CC)CCNC(=O)c1c(C)[nH]c(/C=C2\C(=O)Nc3ccc(F)cc32)c1C` [sunitinib] + O=C1NC(=O)/C(=C/c2ccc(-c3ccc(F)cc3O)o2)S1 [AS252424] (first compound 0.4 µM, partner dose 1 µM), the “cleaved PARP positive nuclei fraction” value was 47.3%.

On to `NC1(c2ccc(-c3nc4ccn5c(=O)[nH]nc5c4cc3-c3ccccc3)cc2)CCC1` + CC(C)CCN1c2nc(Nc3cc(F)c(O)c(F)c3)ncc2N(C)C(=O)C1C [BID1870] (first compound 0.4 µM, partner dose 0.2 µM), for which the “cleaved PARP positive nuclei fraction” value came out at 143%.

For the compound `CC(=O)O[C@@]12CO[C@@H]1C[C@H](O)[C@@]1(C)C(=O)[C@H](O)C3=C(C)[C@@H](OC(=O)[C@H](O)[C@@H](NC(=O)OC(C)(C)C)c4ccccc4)C[C@@](O)([C@@H](OC(=O)c4ccccc4)[C@H]21)C3(C)C` [Docetaxel] + CCCCCCCCCCCC1=C(O)C(=O)C=C(O)C1=O [Embelin] (first compound 0.0001 µM, partner dose 1.2 µM), the “cleaved PARP positive nuclei fraction” value is 207%.

As to `Cn1cnc2c(F)c(Nc3ccc(Br)cc3Cl)c(C(=O)NOCCO)cc21` [selumetinib] + COc1ccc(COc2ccc(Cc3cnc(N)nc3N)cc2OC)cc1 [GW2580] (first compound 0.015 µM, partner dose 1 µM), the “cleaved PARP positive nuclei fraction” value came to 99.9%.
